Measured values published in PubChem BioAssay AID1671190 (National Center for Advancing Translational Sciences (NCATS), 2021).
Screen size: about 580,000 compounds; about 6,100 (1.1%) were called active. Inconclusive means that the source gave no clear call. Such entries were picked first, then a sample of the others. Calls come from the whole dose curve; as a rule, active = well fitted inhibition curve with a large enough effect; inconclusive = small, poorly fitted or top-dose-only effect, or another doubt; inactive = no such curve, though single readings can be large or run the other way. Potencies beside an inconclusive call are fits to weak or partial responses and may not hold up.

By UniProt entry, the sequences of proteins in these tests, tags left out. Where a name states a change or a piece, a line headed by the entry shows the natural chain unless it says otherwise.
UniProt P18054: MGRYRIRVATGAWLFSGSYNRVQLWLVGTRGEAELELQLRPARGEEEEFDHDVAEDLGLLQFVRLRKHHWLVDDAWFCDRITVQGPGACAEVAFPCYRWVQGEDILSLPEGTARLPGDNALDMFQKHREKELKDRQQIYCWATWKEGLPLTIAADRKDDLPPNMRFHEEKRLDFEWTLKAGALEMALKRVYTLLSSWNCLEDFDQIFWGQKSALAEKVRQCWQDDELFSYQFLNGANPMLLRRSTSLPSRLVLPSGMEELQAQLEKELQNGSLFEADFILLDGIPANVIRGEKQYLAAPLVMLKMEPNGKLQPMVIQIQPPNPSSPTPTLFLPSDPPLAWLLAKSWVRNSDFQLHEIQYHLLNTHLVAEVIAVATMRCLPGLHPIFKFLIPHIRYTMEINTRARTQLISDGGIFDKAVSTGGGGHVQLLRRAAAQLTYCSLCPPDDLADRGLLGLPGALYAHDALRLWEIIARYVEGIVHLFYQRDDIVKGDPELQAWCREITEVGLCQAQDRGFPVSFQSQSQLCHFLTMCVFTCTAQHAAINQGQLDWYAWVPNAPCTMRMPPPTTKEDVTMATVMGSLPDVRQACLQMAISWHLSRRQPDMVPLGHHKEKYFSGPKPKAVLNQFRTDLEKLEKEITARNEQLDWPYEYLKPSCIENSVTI

Each compound was assayed against Polyunsaturated fatty acid lipoxygenase ALOX12 (Homo sapiens) (UniProt P18054) (assay: Primary qHTS assay for inhibitors of human arachidonate 12S-lipoxygenase (ALOX12): Round 2). Details: purified 12hLO, xylenol orange hydroperoxide absorbance; activity change, negative = inhibition: at 108 µM (top of the series) unless noted.
Outline: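 Purified human 12hLO (150 nM final) in 25 mM Hepes, 0.01% Triton X-100, pH 7.0 was preincubated 15 min at room temperature with compound. Then 40 uM arachidonic acid was added, 30 min. Hydroperoxide was read by Fe-XO absorbance ratio 573/405 nm.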
% is set by controls: 0 for no effect and ±100 for the full control effect; potency is the fitted concentration of half-maximal effect.

Row | SMILES | Potency | activity change, negative = inhibition
1 | CCc1ccc2[nH]c(=O)c(CN(CCN(CC)CC)C(=S)NCc3ccco3)cc2c1 | inactive | –
2 | CCc1ccc(OCC(O)CN2CCN(CCO)CC2)cc1 (centres undefined) | inconclusive: 5.01 µM [inhibitor, full curve, poor fit] | –
3 | O=C(CCN1C(=O)C2CC=C(Cl)CC2C1=O)NCc1ccco1 (centres undefined) | inconclusive: 44.7 µM [inhibitor, partial curve, poor fit] | –
4 | CNC(=O)N1CCC(C2CCN(S(=O)(=O)c3ccc4c(c3)CCC4)C2)CC1 (centres undefined) | inconclusive: 10 µM [inhibitor, full curve] | –
5 | CC(=O)c1cc(-c2ccccc2)n(CC(=O)Nc2cccc(C)c2)c1C | inconclusive: 28.2 µM [inhibitor, partial curve, poor fit] | –
6 | Cc1c(OCc2nn[nH]n2)ccc2c(-c3ccccc3)cc(=O)oc12 | inconclusive: 28.2 µM [inhibitor, partial curve, poor fit] | –
7 | COc1ccc(CCNC(=O)COc2ccc(S(=O)(=O)N3CCCC3)cc2)cc1 | inactive | –
8 | CCC1(C)Cc2c(sc3c2c(=O)n(-c2ccccc2)c(=O)n3C)CO1 (centres undefined) | inconclusive: 50.1 µM [inhibitor, partial curve, poor fit] | –
9 | CNC(=O)C(C)OC(=O)c1nc(-c2ccccc2)oc1C (centres undefined) | inconclusive: 25.1 µM [inhibitor, partial curve, poor fit] | –
10 | Cc1ccc(NS(=O)(=O)c2ccc3c(c2)CC(=O)N3)cc1Cl | inconclusive: 50.1 µM [inhibitor, partial curve, poor fit] | –
11 | Cc1ccc(-c2nc3ccc(C(=O)O)cc3nc2-c2ccc(C)cc2)cc1 | inconclusive: 44.7 µM [inhibitor, partial curve, poor fit] | –
12 | COc1ccc2ccccc2c1/C=N/Nc1cccc(C(=O)O)c1 | inconclusive: 70.8 µM [inhibitor, partial curve, poor fit] | –
13 | CSc1ccc(-c2cccc(CN)c2)cc1 | – | inactive: -1.69% [at 12.5 µM]
14 | O=C(NCCCN1CCc2ccccc2C1)Nc1ccc(Br)cc1 | inconclusive: 56.2 µM [inhibitor, partial curve, poor fit] | –
15 | COC(=O)C(NC(=O)c1ccc(F)cc1)(Nc1nc(C)cs1)C(F)(F)F (centres undefined) | inconclusive: 100 µM [inhibitor, single point] | –
16 | Cc1ccc2[nH]c(C(=O)N3CCC(C(N)=O)CC3)cc2c1 | inconclusive: 56.2 µM [inhibitor, partial curve, poor fit] | –
17 | Cc1cccc(NC(=O)CCC(=O)N/N=C/c2ccco2)c1C | inactive | –
18 | NC(=S)Cc1nc(-c2ccc(Cl)cc2)cs1 | active: 35.5 µM | –
19 | COc1ccc(-c2ccc(CN3C(C(C)C)C(=O)N(Cc4cn(CC5CCCCC5)nn4)CCS3(=O)=O)cc2)cc1OC (centres undefined) | inconclusive: 112 µM [inhibitor, single point] | –
20 | C=C(Cl)COc1ccccc1C(N)=O | inconclusive: 79.4 µM [inhibitor, partial curve, poor fit] | –
21 | CCc1cc(C(=O)c2ccc(Br)cc2)c(NC(=O)CN(CC)CC)s1 | inactive | –
22 | CCCC(C)c1nnc(NC(=O)C2CC(=O)N(CCc3ccc(F)cc3)C2)s1 (centres undefined) | inconclusive: 50.1 µM [inhibitor, partial curve, poor fit] | –

Given in markdown: part of the list above

| Row | SMILES | Potency | activity change, negative = inhibition |
| --- | --- | --- | --- |
| 4 | CNC(=O)N1CCC(C2CCN(S(=O)(=O)c3ccc4c(c3)CCC4)C2)CC1 (centres undefined) | inconclusive: 10 µM [inhibitor, full curve] | – |
| 16 | Cc1ccc2[nH]c(C(=O)N3CCC(C(N)=O)CC3)cc2c1 | inconclusive: 56.2 µM [inhibitor, partial curve, poor fit] | – |

Following part

Row | SMILES | Potency | activity change, negative = inhibition
23 | Cc1ccn(CCC(=O)NC2CCCc3c2cnn3-c2cccc(C)c2C)n1 (centres undefined) | inactive | –
24 | CC(=O)c1sc(Nc2cccc(C)c2)nc1C | inactive | –
25 | O=C(Nc1ccccc1Cl)C1CN(S(=O)(=O)C2CC2)CC12CCCCC2 (centres undefined) | inactive | –
26 | CCOc1ccc(NC(=S)NC(=O)Cc2ccccc2)cc1 | inconclusive: 20 µM [inhibitor, partial curve, poor fit] | –
27 | Cc1ccccc1NC(=O)c1cc([N+](=O)[O-])ccc1NCCN1C(=O)CCC1=O | inactive | –
28 | Cc1ccc(S(=O)(=O)N2[C@@H](c3ccc(Cl)cc3)C(C(=O)O)=C[C@H]2CC2CCCC2)cc1 | inconclusive: 35.5 µM [inhibitor, partial curve, poor fit] | –
29 | CC1(C)CC(NC(=O)Nc2ccc(OC(F)F)cc2)CC(C)(C)N1 | inactive | –
30 | O=C(c1ccc2c(=O)n(-c3cccc(Cl)c3)cnc2c1)N1CCSCC1 | inactive | –
31 | COc1ccc(C(=O)COC(=O)CCc2ccc(-c3ccccc3)o2)cc1 | active: 7.94 µM | –
32 | COc1ccc(C(=O)/C=C/c2ccc(-c3ccc(OC)cc3)o2)cc1 | active: 0.316 µM | –
33 | CCc1cccc(NC(=O)Cn2c(=O)n(CCC(=O)NCc3ccccc3Cl)c(=O)c3sccc32)c1 | inconclusive: 158 µM [inhibitor, partial curve, poor fit] | –
34 | COc1ccc2sc(-c3ccccc3OC)c(C#CC(C)(C)O)c2c1 | inconclusive: 39.8 µM [inhibitor, partial curve, poor fit] | –
35 | CCOc1ccc2c(c1)C(C)=CC(C)(C)N2 | inconclusive: 56.2 µM [inhibitor, partial curve, poor fit] | –
36 | COc1ccccc1N=NC1C(=O)N(C(N)=S)N=C1C (centres undefined) | inactive | –
37 | Cc1nc(CN2CCN(c3ncc(F)c(N(C)C)n3)CC2)cs1 | inconclusive: 39.8 µM [inhibitor, partial curve] | –
38 | CC1=C(C(=O)OC(C)C(C)(C)C)C(c2ccc(Cl)cc2)NC(=O)N1 (centres undefined) | inactive | –
39 | COc1ccc(NC(=O)Cn2c(-c3ccccc3)nc(C)cc2=O)cc1OC | inconclusive: 70.8 µM [inhibitor, partial curve, poor fit] | –
40 | COC(=O)c1c(C)[nH]c(C(=O)C(C)OC(=O)c2ccc(O)cc2)c1C (centres undefined) | inconclusive: 100 µM [inhibitor, single point] | –
41 | COC(=O)/C=C\C(=O)Nc1cccc([N+](=O)[O-])c1 | inconclusive: 50.1 µM [inhibitor, partial curve, poor fit] | –
42 | Cc1onc(-c2ccccc2)c1C(=O)NC(=S)Nc1sc2c(c1C#N)CCCC2 | inconclusive: 39.8 µM [inhibitor, partial curve, poor fit] | –
43 | CCN(CC)c1ccc(NC(=O)CN2CCN(c3ccccc3OC)CC2)cc1 | inactive | –
44 | CCc1ccc(C2C(C(=O)OC(C)C)=C(C)N=C3SCCC(=O)N32)cc1 (centres undefined) | inconclusive: 0.398 µM [inhibitor, full curve, poor fit] | –
